Results taken from article doi:10.1101/2021.04.22.439970.

Chains of the proteins cited; added tags and fusions are not shown.
UniProt P06104: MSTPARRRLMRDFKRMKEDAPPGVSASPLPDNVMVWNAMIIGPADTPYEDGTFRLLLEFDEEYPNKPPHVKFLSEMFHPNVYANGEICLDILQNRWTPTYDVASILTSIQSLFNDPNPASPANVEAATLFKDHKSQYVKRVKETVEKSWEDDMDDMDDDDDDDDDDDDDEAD
UniProt P22515: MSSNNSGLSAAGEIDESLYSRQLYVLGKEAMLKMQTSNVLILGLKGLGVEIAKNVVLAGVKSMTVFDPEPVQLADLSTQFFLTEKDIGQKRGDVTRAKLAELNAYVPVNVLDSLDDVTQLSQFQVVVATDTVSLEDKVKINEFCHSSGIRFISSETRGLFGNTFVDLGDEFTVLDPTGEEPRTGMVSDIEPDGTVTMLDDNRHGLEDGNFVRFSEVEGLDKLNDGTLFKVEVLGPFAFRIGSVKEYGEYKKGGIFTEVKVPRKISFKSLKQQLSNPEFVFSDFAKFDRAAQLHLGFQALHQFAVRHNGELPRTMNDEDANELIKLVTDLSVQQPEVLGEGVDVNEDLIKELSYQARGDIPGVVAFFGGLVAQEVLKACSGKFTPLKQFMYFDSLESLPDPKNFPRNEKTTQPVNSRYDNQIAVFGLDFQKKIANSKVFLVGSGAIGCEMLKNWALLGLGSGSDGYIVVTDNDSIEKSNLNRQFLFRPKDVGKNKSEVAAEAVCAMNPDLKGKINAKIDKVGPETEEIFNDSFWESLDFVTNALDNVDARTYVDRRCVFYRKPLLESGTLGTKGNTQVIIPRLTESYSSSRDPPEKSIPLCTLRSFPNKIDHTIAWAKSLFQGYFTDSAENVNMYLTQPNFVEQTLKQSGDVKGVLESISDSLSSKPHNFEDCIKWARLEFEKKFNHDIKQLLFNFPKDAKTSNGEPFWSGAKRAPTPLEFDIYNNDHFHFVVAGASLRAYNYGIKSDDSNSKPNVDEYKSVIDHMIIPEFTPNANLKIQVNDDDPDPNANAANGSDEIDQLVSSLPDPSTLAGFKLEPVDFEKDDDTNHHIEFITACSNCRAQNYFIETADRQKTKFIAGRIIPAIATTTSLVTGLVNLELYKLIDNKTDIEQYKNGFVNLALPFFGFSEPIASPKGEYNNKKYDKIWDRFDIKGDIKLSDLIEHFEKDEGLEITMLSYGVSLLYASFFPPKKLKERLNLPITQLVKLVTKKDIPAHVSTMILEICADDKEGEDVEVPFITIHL

Molecular target: Rad6-HA (S. cerevisiae) (UniProt P06104)
Experiment: affinity purification with mass spectrometry

Uba1 (endogenous) (from UniProt P22515 1-1024) (enzyme)
binding: binds

Results are given in words; binding and its absence hold for the method and conditions named. Binding seen in cells or lysates may run through a third protein. Here binding means that the protein was enriched with, or labelled near, the bait; the list need not be complete.
